Test results reported in article doi:10.1101/2020.07.24.220525.
Changes are numbered by the printed parent chain. Numbers in names are those of the source. Where two headings read alike, the source gives them in different places. Results are given in words; binding and its absence hold for the method and conditions named. For some of these results: Binding seen in cells or lysates may run through a third protein. Some entries that bind do so weakly or less than the wild type. For some of these results: Sequences can lack the tags named with a protein.

Amino acid sequences for entries named in this document (tags omitted). A change or cut given only in a name is not applied to a line headed by its entry. Residues count along the entry.
UniProt Q99081, 9-642: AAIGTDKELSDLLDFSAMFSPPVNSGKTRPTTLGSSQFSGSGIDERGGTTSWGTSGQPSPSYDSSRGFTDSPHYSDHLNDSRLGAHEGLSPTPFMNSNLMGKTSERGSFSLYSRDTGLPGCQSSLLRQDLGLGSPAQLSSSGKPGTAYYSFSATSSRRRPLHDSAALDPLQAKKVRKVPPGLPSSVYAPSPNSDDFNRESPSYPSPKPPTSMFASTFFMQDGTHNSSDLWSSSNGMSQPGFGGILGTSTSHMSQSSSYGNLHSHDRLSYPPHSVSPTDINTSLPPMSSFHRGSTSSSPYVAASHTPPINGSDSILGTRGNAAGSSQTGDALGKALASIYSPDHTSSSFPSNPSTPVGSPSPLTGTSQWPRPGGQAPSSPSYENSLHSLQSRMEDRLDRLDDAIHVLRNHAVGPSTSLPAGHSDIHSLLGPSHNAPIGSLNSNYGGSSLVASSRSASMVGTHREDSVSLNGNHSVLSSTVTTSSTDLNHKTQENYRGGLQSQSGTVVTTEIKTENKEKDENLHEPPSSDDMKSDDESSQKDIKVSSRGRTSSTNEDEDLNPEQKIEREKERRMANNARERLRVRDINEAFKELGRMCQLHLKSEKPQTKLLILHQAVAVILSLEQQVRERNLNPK
UniProt Q99081, whole entry: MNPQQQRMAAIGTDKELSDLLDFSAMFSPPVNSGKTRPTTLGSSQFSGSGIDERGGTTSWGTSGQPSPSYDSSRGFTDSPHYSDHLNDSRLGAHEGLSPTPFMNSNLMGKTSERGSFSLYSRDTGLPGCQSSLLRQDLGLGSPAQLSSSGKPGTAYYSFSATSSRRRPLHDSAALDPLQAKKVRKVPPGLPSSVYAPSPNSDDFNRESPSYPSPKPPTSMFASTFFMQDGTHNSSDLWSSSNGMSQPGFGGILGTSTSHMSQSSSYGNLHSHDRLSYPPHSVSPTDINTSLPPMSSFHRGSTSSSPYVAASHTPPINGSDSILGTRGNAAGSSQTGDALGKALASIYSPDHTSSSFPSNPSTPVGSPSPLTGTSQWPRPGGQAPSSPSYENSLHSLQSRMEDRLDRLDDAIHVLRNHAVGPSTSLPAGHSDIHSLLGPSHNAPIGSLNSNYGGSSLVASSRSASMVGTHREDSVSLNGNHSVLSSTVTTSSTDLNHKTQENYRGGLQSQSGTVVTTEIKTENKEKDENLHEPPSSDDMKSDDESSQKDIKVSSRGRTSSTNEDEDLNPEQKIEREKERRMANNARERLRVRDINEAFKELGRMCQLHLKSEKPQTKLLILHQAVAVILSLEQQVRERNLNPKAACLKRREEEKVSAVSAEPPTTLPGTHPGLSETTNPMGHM
UniProt P15884, 1-652: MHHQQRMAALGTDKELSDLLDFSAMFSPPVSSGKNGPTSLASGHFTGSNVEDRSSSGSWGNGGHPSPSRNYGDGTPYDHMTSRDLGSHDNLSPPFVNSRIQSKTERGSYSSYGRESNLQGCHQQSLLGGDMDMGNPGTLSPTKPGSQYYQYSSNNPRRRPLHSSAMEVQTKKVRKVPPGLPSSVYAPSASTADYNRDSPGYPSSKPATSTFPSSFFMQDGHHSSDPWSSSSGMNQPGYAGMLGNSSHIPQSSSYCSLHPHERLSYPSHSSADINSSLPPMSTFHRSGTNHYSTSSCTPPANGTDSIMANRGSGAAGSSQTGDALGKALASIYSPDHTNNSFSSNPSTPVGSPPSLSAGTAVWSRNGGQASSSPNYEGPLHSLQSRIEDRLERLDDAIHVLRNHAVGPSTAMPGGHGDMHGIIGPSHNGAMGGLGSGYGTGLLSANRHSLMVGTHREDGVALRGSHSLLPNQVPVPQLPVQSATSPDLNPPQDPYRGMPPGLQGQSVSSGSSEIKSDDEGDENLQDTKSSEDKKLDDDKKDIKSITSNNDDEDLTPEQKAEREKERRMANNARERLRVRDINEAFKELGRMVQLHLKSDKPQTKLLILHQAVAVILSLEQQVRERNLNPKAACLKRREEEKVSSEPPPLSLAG

T1: E47 (full-length) (UniProt P15923)
T1 sequence: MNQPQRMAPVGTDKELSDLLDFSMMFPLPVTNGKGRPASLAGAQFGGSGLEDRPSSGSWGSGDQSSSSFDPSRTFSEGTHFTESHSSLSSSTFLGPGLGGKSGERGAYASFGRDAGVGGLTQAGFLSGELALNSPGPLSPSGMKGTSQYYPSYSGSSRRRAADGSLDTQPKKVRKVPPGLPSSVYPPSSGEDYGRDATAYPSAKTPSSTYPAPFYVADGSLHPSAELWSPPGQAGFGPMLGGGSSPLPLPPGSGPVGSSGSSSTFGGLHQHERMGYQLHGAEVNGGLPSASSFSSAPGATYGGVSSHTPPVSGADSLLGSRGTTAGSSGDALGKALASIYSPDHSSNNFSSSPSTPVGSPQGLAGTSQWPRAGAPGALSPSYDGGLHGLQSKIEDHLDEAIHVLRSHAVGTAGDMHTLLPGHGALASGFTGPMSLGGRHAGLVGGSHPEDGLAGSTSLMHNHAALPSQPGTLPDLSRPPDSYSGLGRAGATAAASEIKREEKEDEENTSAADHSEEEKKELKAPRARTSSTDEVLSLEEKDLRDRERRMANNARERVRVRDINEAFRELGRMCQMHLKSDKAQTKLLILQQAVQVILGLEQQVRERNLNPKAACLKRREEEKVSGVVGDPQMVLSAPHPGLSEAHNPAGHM

T2: Mtg16 P209T fused to LexA DNA-binding domain (UniProt O54972)
T2 sequence: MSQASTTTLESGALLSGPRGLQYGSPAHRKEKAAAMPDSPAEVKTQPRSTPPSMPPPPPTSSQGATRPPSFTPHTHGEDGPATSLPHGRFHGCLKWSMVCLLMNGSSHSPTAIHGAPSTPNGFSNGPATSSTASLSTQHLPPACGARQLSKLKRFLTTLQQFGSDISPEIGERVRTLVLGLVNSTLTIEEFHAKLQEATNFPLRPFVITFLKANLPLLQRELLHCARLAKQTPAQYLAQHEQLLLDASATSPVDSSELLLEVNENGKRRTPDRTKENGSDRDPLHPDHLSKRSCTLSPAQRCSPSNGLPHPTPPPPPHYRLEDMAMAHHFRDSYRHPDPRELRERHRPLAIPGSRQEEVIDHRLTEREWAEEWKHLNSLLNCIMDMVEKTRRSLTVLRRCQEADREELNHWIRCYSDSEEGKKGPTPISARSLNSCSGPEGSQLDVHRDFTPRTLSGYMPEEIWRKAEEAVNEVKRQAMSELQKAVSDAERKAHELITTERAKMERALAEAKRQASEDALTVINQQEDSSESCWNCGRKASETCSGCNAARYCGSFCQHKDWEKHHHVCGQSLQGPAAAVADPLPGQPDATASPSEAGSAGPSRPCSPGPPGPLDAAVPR

T3: Mtg16 F210A fused to LexA DNA-binding domain (UniProt O54972)
T3 sequence: T2 sequence with T209P, F210A

T4: Mtg16 P205A fused to LexA DNA-binding domain (UniProt O54972)
T4 sequence: T2 sequence with P205A, T209P

T5: Mtg16 wild type fused to LexA DNA-binding domain (UniProt O54972)
T5 sequence: T2 sequence with T209P

B1: Myc-Mtg16 wild type (protein, UniProt O54972 1-620)
chain: T2 sequence with T209P
B2: Myc-Mtg16 P209T (protein, UniProt O54972 1-620)
chain: T2 sequence

What was measured:
[1] = target: HEB (full-length) in 293T lysate (human (endogenous in 293T)) (UniProt Q99081); test: co-IP
[2] = target: T1, E47 (full-length); test: co-IP
[3] = target: T2, Mtg16 P209T fused to LexA DNA-binding domain; test: two-hybrid
[4] = target: T3, Mtg16 F210A fused to LexA DNA-binding domain; test: two-hybrid
[5] = target: T4, Mtg16 P205A fused to LexA DNA-binding domain; test: two-hybrid
[6] = target: T5, Mtg16 wild type fused to LexA DNA-binding domain; test: two-hybrid
[7] = target: HEB (full-length) in 293T lysate (human (endogenous in 293T)) (UniProt Q99081); test: co-IP; remark: listed apart in the source
[8] = target: T1, E47 (full-length); test: co-IP; remark: listed apart in the source

Row | Molecule | binding [3] | binding [4] | binding [6] | binding [7] | binding [8] | also measured
1 | Myc-Mtg16 F210A (from UniProt O54972 1-620) | – | – | – | – | – | binding [1]: binds weakly; binding [2]: no binding
2 | TCF4(aa1-652)-Gal4-AD (from UniProt P15884 1-652) (domain or fragment) | binds | no binding | binds | – | – | binding [5]: binds
3 | fragment of HEB (aa9-642) fused to the Gal4 activation domain (from UniProt Q99081 9-642) (domain or fragment) | binds | no binding | binds | – | – | –
4 | B1 | – | – | – | binds | binds | –
5 | B2 | – | – | – | binds weakly | no binding | –
